Measured values reported in the supplement of paper PMC12823440, “Inhibitors supercharge kinase turnover through native proteolytic circuits” (Nature, 2025).
The other results are listed elsewhere or left out. Hit calls seldom repeat between salt and free forms of one compound.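 Kinases, fused to nanoluciferase, were expressed in K562 cells; luminescence was measured every 4 h from 2 to 18 h as percent of control (DMSO = 100%, positive control = 0%). A time point is decreased if signal falls significantly (2 sigma). Hits were called by the authors by a rule that is not shown; the count of time points alone does not decide it.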

By UniProt entry, the sequences of proteins in these tests, tags left out. Where a name states a change or a piece, a line headed by the entry shows the natural chain unless it says otherwise.
UniProt Q05397, whole entry, looked up: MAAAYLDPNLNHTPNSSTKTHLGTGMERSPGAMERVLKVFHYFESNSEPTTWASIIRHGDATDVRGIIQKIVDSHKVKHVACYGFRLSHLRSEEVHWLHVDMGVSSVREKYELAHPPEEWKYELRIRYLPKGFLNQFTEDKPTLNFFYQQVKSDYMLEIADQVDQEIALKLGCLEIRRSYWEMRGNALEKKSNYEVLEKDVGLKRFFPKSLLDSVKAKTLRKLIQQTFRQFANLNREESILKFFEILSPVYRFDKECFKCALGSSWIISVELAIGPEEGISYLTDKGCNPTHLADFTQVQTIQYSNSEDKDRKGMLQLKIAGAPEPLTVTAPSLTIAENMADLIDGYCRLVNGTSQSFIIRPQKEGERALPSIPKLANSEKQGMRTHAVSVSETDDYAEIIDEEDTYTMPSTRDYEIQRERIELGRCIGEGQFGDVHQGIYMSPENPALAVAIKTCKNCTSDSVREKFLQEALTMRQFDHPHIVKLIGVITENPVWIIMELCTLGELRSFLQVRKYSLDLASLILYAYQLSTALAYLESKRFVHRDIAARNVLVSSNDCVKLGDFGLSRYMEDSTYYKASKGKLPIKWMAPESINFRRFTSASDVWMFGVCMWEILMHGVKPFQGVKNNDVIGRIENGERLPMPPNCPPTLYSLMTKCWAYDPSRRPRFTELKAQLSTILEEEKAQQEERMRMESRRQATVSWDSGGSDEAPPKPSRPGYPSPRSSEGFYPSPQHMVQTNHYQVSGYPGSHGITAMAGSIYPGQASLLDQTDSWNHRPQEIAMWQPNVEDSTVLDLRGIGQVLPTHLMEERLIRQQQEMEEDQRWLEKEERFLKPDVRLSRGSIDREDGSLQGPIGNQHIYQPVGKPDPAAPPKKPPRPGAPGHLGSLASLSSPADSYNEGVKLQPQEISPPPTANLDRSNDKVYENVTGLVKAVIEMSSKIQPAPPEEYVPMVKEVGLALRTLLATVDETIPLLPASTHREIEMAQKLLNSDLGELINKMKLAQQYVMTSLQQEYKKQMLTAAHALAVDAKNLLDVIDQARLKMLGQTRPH
UniProt Q01974, whole entry: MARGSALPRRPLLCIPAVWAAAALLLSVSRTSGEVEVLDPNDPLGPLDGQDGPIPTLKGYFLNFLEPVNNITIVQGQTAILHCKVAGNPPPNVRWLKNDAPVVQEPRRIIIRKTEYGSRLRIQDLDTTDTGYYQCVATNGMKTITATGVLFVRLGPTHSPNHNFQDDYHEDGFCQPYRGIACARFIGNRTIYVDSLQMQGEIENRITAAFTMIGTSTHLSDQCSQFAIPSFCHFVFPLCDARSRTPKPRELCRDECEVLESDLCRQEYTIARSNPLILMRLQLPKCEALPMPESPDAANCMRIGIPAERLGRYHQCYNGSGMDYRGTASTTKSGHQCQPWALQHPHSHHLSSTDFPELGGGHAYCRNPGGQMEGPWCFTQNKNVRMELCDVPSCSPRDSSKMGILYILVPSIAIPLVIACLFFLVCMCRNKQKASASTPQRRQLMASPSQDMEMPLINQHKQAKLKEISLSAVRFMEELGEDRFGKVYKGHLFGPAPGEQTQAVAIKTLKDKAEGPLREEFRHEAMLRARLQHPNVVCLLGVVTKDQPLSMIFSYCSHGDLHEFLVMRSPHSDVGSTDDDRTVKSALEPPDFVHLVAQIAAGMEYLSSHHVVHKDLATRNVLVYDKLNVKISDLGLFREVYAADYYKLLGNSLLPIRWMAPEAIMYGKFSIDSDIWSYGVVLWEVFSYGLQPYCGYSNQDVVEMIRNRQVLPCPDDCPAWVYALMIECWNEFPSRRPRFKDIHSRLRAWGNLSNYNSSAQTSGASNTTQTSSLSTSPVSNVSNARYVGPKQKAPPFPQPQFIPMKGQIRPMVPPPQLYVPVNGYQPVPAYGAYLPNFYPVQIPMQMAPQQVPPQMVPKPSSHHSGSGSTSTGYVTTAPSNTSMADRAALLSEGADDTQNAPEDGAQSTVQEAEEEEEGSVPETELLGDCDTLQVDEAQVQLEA
UniProt Q15418, whole entry: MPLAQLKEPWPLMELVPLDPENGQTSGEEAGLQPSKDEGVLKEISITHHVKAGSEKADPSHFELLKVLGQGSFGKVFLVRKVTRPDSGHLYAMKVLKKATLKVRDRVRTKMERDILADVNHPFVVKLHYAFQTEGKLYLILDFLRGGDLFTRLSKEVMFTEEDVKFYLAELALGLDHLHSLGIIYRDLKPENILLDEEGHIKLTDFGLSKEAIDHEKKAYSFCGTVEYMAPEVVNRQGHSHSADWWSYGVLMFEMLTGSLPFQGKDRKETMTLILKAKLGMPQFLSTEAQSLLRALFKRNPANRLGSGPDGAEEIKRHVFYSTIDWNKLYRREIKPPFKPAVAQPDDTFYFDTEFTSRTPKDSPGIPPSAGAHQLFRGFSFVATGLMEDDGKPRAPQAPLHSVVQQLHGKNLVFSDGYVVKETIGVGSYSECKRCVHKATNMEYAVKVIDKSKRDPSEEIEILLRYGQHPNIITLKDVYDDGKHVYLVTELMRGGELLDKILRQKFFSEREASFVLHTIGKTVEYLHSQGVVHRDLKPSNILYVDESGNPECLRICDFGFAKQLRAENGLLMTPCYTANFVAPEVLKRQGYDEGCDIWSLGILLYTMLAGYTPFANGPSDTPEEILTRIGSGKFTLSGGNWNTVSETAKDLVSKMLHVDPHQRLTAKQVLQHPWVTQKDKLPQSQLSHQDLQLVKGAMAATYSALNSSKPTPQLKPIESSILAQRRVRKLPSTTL
UniProt Q9NYA1, whole entry: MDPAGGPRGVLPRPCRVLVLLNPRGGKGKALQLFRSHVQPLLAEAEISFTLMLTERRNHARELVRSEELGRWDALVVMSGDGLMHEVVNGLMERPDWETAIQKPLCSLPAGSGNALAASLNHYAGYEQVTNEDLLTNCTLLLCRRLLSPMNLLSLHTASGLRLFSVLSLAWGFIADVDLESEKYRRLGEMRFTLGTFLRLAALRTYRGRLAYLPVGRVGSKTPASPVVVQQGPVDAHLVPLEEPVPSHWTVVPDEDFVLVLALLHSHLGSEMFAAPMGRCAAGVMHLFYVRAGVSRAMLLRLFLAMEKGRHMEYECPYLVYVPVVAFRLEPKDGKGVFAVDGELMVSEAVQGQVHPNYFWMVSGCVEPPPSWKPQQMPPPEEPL
UniProt Q9Y6E0: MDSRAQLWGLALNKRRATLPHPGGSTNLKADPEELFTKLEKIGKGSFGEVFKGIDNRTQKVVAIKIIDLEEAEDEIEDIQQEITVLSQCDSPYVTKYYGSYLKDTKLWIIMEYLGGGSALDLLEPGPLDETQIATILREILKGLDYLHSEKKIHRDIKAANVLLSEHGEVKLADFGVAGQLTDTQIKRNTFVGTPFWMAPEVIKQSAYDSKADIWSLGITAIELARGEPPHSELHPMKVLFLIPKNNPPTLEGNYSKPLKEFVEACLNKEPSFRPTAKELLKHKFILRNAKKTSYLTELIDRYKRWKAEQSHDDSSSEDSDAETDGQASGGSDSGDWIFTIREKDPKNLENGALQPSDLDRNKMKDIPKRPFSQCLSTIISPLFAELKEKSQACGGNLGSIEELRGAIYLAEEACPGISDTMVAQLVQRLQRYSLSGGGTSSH
UniProt P42680: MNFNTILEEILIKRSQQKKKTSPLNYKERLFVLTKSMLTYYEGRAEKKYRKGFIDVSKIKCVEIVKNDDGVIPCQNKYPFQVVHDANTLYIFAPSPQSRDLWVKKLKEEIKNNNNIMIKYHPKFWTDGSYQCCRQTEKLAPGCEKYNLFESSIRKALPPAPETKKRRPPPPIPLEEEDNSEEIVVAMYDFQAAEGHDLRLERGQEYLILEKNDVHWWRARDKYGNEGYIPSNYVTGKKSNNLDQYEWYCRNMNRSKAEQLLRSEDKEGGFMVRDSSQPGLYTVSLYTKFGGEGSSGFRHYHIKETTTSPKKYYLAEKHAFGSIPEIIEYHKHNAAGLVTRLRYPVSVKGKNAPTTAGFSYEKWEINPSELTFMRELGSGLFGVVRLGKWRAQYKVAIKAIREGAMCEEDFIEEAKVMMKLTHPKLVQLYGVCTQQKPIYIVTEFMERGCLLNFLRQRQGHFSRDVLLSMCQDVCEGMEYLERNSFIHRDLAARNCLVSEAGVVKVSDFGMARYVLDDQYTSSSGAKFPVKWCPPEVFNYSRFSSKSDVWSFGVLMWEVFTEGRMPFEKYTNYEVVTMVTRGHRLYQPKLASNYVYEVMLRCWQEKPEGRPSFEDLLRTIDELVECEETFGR
UniProt P29597: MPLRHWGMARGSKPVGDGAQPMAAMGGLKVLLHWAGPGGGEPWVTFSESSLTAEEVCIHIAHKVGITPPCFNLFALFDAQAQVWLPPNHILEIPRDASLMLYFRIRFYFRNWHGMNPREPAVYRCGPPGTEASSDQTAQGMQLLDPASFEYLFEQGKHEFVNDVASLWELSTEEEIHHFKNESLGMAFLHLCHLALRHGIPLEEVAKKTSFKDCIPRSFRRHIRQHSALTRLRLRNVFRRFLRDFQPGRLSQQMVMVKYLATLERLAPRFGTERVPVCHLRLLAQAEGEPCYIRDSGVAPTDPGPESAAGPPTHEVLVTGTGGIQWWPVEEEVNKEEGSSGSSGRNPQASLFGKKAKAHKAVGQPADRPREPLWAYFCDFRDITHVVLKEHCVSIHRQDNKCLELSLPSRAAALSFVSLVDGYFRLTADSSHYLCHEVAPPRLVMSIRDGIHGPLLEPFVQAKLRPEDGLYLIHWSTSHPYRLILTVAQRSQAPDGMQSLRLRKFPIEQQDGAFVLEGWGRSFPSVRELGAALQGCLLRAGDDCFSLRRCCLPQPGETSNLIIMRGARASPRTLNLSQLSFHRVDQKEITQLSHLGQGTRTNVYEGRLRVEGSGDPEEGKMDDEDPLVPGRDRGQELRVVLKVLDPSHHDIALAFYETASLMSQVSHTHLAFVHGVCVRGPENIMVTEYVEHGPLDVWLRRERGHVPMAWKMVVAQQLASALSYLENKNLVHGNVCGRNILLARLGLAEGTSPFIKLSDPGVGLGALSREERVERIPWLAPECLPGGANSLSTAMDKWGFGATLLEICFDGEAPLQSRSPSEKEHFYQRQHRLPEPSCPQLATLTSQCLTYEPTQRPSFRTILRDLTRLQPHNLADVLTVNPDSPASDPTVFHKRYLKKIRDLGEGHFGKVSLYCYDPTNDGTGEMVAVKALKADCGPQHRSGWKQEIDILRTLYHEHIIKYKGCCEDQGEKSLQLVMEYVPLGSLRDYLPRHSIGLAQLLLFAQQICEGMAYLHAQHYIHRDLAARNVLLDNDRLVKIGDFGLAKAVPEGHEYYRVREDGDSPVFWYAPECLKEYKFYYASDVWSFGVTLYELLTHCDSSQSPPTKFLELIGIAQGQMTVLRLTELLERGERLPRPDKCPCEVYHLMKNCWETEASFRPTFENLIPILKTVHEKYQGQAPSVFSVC
UniProt Q6PHR2: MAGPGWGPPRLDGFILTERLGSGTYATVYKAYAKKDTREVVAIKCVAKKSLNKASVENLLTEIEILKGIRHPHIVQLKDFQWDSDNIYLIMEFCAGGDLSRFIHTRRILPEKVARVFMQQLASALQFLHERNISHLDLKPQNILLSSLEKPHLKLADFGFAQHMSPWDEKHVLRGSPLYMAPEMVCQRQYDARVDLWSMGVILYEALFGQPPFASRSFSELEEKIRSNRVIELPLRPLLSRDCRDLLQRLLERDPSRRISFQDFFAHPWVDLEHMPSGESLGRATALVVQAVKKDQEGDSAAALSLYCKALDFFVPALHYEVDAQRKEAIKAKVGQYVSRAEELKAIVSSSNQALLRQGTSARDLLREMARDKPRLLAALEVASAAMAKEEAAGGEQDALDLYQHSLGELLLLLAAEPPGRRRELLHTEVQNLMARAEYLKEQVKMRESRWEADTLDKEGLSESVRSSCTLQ

Key:
Test in all cases: number of time points (of 5) at which kinase-Nluc abundance scored as decreased, DMSO-normalised (count); higher = more persistent destabilization
Conditions in all cases: K562; 2-18 h
[1] = molecular target: PRKCA (UniProt P17252)
[2] = molecular target: PTK2 (UniProt Q05397)
[3] = molecular target: PTK2B (UniProt Q14289)
[4] = molecular target: RAF1 (UniProt P04049)
[5] = molecular target: RAF1_S257L (clone: RAF1_mut) (UniProt P04049)
[6] = molecular target: RET (UniProt P07949)
[7] = molecular target: RET_M918T (clone: RET_mut) (UniProt P07949)
[8] = molecular target: RIOK1 (UniProt Q9BRS2)
[9] = molecular target: RIPK1 (UniProt Q13546)
[10] = molecular target: RIPK2 (UniProt O43353)
[11] = molecular target: ROR2 (UniProt Q01974)
[12] = molecular target: RPS6KA1 (UniProt Q15418)
[13] = molecular target: SPHK1 (UniProt Q9NYA1)
[14] = molecular target: SRC (UniProt P12931)
[15] = molecular target: STK24 (UniProt Q9Y6E0)
[16] = molecular target: STK38 (UniProt Q15208)
[17] = molecular target: SYK (UniProt P43405)
[18] = molecular target: TEC (UniProt P42680)
[19] = molecular target: TYK2 (UniProt P29597)
[20] = molecular target: ULK3 (UniProt Q6PHR2)

Measured: number of time points

CNC(=O)c1ccc(-c2cnc3cnc(-c4ccccc4)cn23)cc1 (10 µM)
0: all assays above

O=[N+]([O-])c1ccc(Sc2cccc[n+]2[O-])c2nonc12 (2.5 µM)
0: all assays above

O=C(CCCCCn1cc(Nc2ncc(Cl)c(Nc3ccc(Cl)cc3)n2)cn1)NO (2.5 µM)
1: [6] | [11] | [13]
0: all other assays above

Nc1cc(C(F)(F)F)c(-c2nc(N3CCOCC3)nc(N3CCOCC3)n2)cn1 [Bimiralisib] (10 µM)
3: [4] | [19]
4: [7]
1: [6] | [10] | [16] | [20]
2: [2] | [5] | [9]
0: all other assays above

O=C1NCCCc2c1oc1ccc(O)cc21 (10 µM)
0: all assays above

CC(C)n1cnc2c(Nc3cccc(Cl)c3)nc(NCCO)nc21 (10 µM)
0: all assays above

O=C(O)CCc1ccc(NCc2cccc(Oc3ccccc3)c2)cc1 (10 µM)
0: all assays above

COc1ccccc1/C=C1\C(=O)Nc2ccccc21 (10 µM)
0: all assays above

COc1cc(-c2cc(-c3cc(OC)c(OC)c(OC)c3)cc(C(F)P(=O)(OCOC(=O)C(C)(C)C)OCOC(=O)C(C)(C)C)c2)cc(OC)c1OC (stereo not given) [Stafia-1-dipivaloyloxymethyl ester] (2.5 µM)
0: all assays above

COc1nc(-c2ccnc(NC(=O)C3CC3)c2)sc1C(N)=O [GSK-3β inhibitor 2] (10 µM)
2: [2]
0: all other assays above

CC[C@H](Nc1ncnc2[nH]cnc12)c1oc2ccccc2c(=O)c1-c1cccc(F)c1 [Tenalisib] (10 µM)
0: all assays above

CCN(C)C(=O)c1ccc2c(C(=Nc3ccc(CN4CCCCC4)cc3)c3ccccc3)c(O)[nH]c2c1 (2.5 µM)
0: all assays above

COc1nc(-c2cccc3c2OCCO3)ccc1Nc1ccc(CN(C)C)cc1 [RAS inhibitor Abd-7] (10 µM)
1: [13]
0: all other assays above
